Test results from patent US4508719A, “Hydroxyimino and alkoxyimino derivatives of 1,4-dihydropyridine and anti-hypertensive compositions” (Pierrel S.p.A., priority 1982, dated 1985).

Experiment: in vivo
Conditions: mouse, iv
Description: Male CD1 mice from Charles River, weighing 25 g, are used. Compounds are administered intravenously (i.v.), dissolved in dimethylsulfoxide, and the volume of administration is 0.01 ml/10 g of body weight. The lethal dose, LD50 after seven days, is calculated according to the method of Litchfield and Wilcoxon (Exp. Ther. 96, 99 (1949)).

**Q.** For `COC(=O)C1=C(C)NC(C)=C(C(=O)OC)C1c1ccccc1[N+](=O)[O-]` [Nifedipine, reference compound], which LD50 at 168 h is on record?
**A.** 10.8 mg/kg
